{"source": "patent US20080044474A1", "about": "“Dispersions of nanoureas comprising biologically active compounds” (Bayer MaterialScience AG, priority 2006, published 2008)", "key": {"[1]": {"test_system": "Bacillus subtilis 168", "assay": "Agar plate inhibition halo test of active compound-loaded nanourea dispersions", "format": "cell-based", "method": "(§1) Cells of Staphylococcus epidermidis 498 and Bacillus subtilis 168 are plated out on agar plates such that, after incubation overnight at 37° C., they have formed a visible cell lawn on the agar. The agar contained a complex nutrient-rich medium (Müller-Hinton medium, OD600=0.1 set; 200 μl plated out per plate, dried at room temperature for one hour). A hole was in each case punched in the centre of the plates. Active compound-containing nanourea dispersions (100 μl), which had been prepared analogously to Example 2 and in which the active compound was present exclusively in bound form, were filled into this hole. After incubation overnight, the agar was examined for diffusing antibiotic active compounds in that the missing cell lawn around the punched-out hole can be seen (“inhibition halos”). These inhibition halos were compared with an agar plate without further additives and an agar plate with an active compound-free nanourea dispersion."}, "[2]": {"test_system": "Staphylococcus epidermidis 498", "assay": "Agar plate inhibition halo test of active compound-loaded nanourea dispersions", "format": "cell-based", "method": "as §1"}}}
{"compound": "CCCCCCCCCCCCCCCC[n+]1ccccc1.[Cl-]", "note": "[1-Cetylpyridinium chloride]", "values": [{"measurement": "Inhibition halo (diameter minus the diameter of the punched-out hole)", "setting": "[1]", "result": 200, "unit": "μm"}, {"measurement": "Inhibition halo (diameter minus the diameter of the punched-out hole)", "setting": "[2]", "result": 300, "unit": "μm"}]}
